According to publication doi:10.1101/2025.06.21.660855:

Experiments:
[1] = molecular target: GST-Psv (Drosophila) (UniProt Q8SZN4); experiment: pull-down
[2] = molecular target: T1, GST-Arm^34–87 (Drosophila) (UniProt P18824); experiment: pull-down
T1 sequence: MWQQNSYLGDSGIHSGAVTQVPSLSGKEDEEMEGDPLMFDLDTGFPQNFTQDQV

binding [1]: binds
Molecule: MBP-Arm (from UniProt P18824 1-843)

binding [2]: no binding
Molecule: MBP-Psv (Drosophila)

binding [1]: no binding
B1: full-length MBP-Klp61F (protein, UniProt P46863 1-1066)
chain: MDISGGNTSRQPQKKSNQNIQVYVRVRPLNSRERCIRSAEVVDVVGPREVVTRHTLDSKLTKKFTFDRSFGPESKQCDVYSVVVSPLIEEVLNGYNCTVFAYGQTGTGKTHTMVGNETAELKSSWEDDSDIGIIPRALSHLFDELRMMEVEYTMRISYLELYNEELCDLLSTDDTTKIRIFDDSTKKGSVIIQGLEEIPVHSKDDVYKLLEKGKERRKTATTLMNAQSSRSHTVFSIVVHIRENGIEGEDMLKIGKLNLVDLAGSENVSKAGNEKGIRVRETVNINQSLLTLGRVITALVDRAPHVPYRESKLTRLLQESLGGRTKTSIIATISPGHKDIEETLSTLEYAHRAKNIQNKPEVNQKLTKKTVLKEYTEEIDKLKRDLMAARDKNGIYLAEETYGEITLKLESQNRELNEKMLLLKALKDELQNKEKIFSEVSMSLVEKTQELKKTEENLLNTKGTLLLTKKVLTKTKRRYKEKKELVASHMKTEQVLTTQAQEILAAADLATDDTHQLHGTIERRRELDEKIRRSCDQFKDRMQDNLEMIGGSLNLYQDQQAALKEQLSQEMVNSSYVSQRLALNSSKSIEMLKEMCAQSLQDQTNLHNKLIGEVMKISDQHSQAFVAKLMEQMQQQQLLMSKEIQTNLQVIEENNQRHKAMLDSMQEKFATIIDSSLQSVEEHAKQMHKKLEQLGAMSLPDAEELQNLQEELANERALAQQEDALLESMMMQMEQIKNLRSKNSISMSVHLNKMEESRLTRNHRIDDIKSGIQDYQKLGIEASQSAQAELTSQMEAGMLCLDQGVANCSMLQVHMKNLNQKYEKETNENVGSVRVHHNQVEIICQESKQQLEAVQEKTEVNLEQMVDARQQLITEDRQRFIGHATVATDLVQESNRQFSEHAEHQRQQLQICEQELVRFQQSELKTYAPTGTTPSKRDFVYPRTLVATSPHQEIVRRYRQELDWSDLDTTATIDECSEGEHDVSMHSVQELSETETIMNSTPIEPVDGVTVKRGCGTTRNSNSNALKPPVATGGKRSSSLSRSLTPSKTSPRGSPAFVRHNKENVA

No constants are given. Whether binding was seen depends on the method and setting. Binding seen in cells or lysates may run through a third protein. For part of these data: Binding calls can cover weak binding; strength is not graded here. Where a sequence is shown, tags or fusion partners need not be part of it. One block for each molecule: values may come before it.
